According to patent publication US20140113831A1:
These are yes or no findings as the source states them, for the method shown. Some entries that bind do so weakly or less than the wild type.

Sequences of proteins named here, by UniProt entry; tags and fusion partners are left off. A change or cut given only in a name is not applied to a line headed by its entry. Residues count along the entry.
UniProt P05622, residues 32-530: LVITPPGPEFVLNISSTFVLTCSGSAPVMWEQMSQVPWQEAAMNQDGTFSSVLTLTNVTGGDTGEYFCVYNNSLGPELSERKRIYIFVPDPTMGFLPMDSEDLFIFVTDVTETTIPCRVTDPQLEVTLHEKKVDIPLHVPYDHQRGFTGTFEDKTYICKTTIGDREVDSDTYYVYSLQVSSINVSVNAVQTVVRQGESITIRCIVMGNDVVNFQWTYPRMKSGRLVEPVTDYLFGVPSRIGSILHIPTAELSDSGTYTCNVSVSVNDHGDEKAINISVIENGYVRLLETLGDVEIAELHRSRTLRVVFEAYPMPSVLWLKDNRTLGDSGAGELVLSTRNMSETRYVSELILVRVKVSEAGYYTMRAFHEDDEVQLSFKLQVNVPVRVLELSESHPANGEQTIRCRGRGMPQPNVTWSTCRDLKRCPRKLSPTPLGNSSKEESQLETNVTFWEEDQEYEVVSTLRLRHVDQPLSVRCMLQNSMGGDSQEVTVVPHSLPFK

Columns and labels:
[1] = target: human PDGFR-hIgG1-Fc chimeric fusion protein (human) (UniProt P09619); experiment: SPR (Biacore T100), PDGFR-hIgG1-Fc captured by anti-hIgG1 Fc
[2] = target: mouse PDGFR-hIgG1-Fc chimeric fusion protein (mouse; human) (UniProt P05622); experiment: as above
human PDGFRb (human) [3] = target: human PDGFRb (human) (UniProt P09619); experiment: dsDNA display selection of the HCDR3 shuffled VH library; clone sequenced from the selected pool
human PDGFRb (human) [4] = target: human PDGFRb (human) (UniProt P09619); experiment: dsDNA display selection of the HCDR3 shuffled VH library with human PDGFRb and off rate selection
human PDGFRb (human) [5] = target: human PDGFRb (human) (UniProt P09619); experiment: DNA display selection, six rounds on human PDGFRb

Binder | binding (human PDGFRb (human) [4]) | further results
XB2202 VH domain (protein) VH: QVQLVQSGAEVKKPGSSVRVSCKASGGTFSRHAISWVRQAPGQGLEWIGGILPILKTPNYAQRFQGRVTINADESTSTVYMEMSSLRSEDTAVYYCATHGGDRSYWGQGTLVTVSS |  | binding [1]: binds; binding [2]: binds; binding (human PDGFRb (human) [3]): binds
XB2708 VH domain (protein) VH: QVQLVQSGGGVVQPGGSLRLSCAASGFTSRSYGMHWVRQAPGKGLEWVAFILFDGNNKYYADSVKGRFTISSDNSKNTLYLQMNSLRAEDTAVYYCATHGGDRSYWGQGTLVTVSS | binds | binding [1]: binds; binding [2]: binds
VH domain clone B4 (SEQ ID NO: 2) (protein) VH: QVQLVQSGAEVKKPGASVKVSCKASGYTFTSYAISWVRQAPGQGLEWMGGIIPIFGTANYAQKFQGRVTITADESTSTAYMELSSLRSEDTAVYYCAIHGGDRSYWGQGTLVTVSS |  | binding (human PDGFRb (human) [5]): binds
VH domain clone G2 (SEQ ID NO: 3) (protein) VH: QVQLVQSGAEVKKPGASVKVSCKASGYTFTGYAISWVRQAPGQGLEWMGGIIPIFGTANYAQKFQGRVTITADESTSTAYMELSSLRSKDTAVYYCAIHGGDRSYWGQGTLVTVSS |  | binding (human PDGFRb (human) [5]): binds
VH domain clone H11. (SEQ ID NO: 59) (protein) VH: QVQLLESGAEVKNPGASVKVSCKASGYPFSAYYIQWVRQAPGQGLEWMGWLNPNSGDTHSAQKFQGRVTMTRDTSISTAYMELSGLTSDDTAVYYCATHGGDRSYWGQGTLVTVSS |  | binding (human PDGFRb (human) [3]): binds
VH domain clone C08. (SEQ ID NO: 60) (protein) VH: EVQLLESEGGLVQPGGSLRLSCTASGFSFNAFWMHWVRQAPGKGLEWVSRISIDGTTTTYADSVQGRFTISRDNARNTLYLQMNSLRAEDAAVYYCATHGGDRSYWSQGTLVTVSS |  | binding (human PDGFRb (human) [3]): binds
VH domain clone D03. (SEQ ID NO: 62) (protein) VH: QVQLVQSGGGLVQPGGSLRLSCVASGFTFGNDWMHWVRQAPGKGLVWVSRINADGTSTAYAESVKGRFTVSRDNAKNTLYLQMNGLRAEDTAVYYCATHGGDRSYWGQGTLVTVSS | binds | 
VH domain clone A10. (SEQ ID NO: 63) (protein) VH: QVQLVQSGGGLVQPGRSLRLSCAASGFTFDDYAMNWVRQAPGKGLEWVSLIYSDGSTYYADSVKGRFTISRDNSKKTLYLQMNNLRVEDTAVYYCATHGGDRSYWGQGTLVTVSS | binds | 
VH domain clone C09. (SEQ ID NO: 64) (protein) VH: QVQLVQSGGALVQPGGSLRLSCAASGFTLSNNAMSWVRQAPGKRLEWVSAIDGSGGTTYYAGSVKGRFTISSDNSKNTVFLQMNSLRAEDTAVYYCATHGGDRSYWGQGTLVTVSS | binds | 
VH domain clone A06. (SEQ ID NO: 65) (protein) VH: QVQLVQSGGGLVQPGGSLRLSCAASGFTFSGHWMHWVRQVPGKGLVWVSHISNDGSITRYADSVKGRFTVARDNAKNTMYLQMNSLRAEDTAVYYCATHGGDRSYWGQGTLVTVSS | binds | 
VH domain clone C05. (SEQ ID NO: 66) (protein) VH: QVQLVQSGGGLVKPGGSLRLSCAASGFIFSSNWMHWVRQVPGKGLEWVSRIKTDGSSTSYADSVKGRFTISRDNAKNTLYLQMNSLRAEDTAVYYCATHGGDRSYWGQGTLVTVSS | binds | 
VH domain clone H01. (SEQ ID NO: 67) (protein) VH: QVQLVQSGGGLVQPGGSLRLSCAASGFTLSSDWMHWVRQAPGKGLVWVSRISSDGSTTAYADSVRGRFTISRDNAKNTLYLQMNSLRAEDTAVYYCATHGGDRSYWGQGTLVTVSS | binds | 
VH domain clone G04. (SEQ ID NO: 68) (protein) VH: QVQLVQSGGGLVQPGGSLRLSCAASGFTLSSDWMHWVRQAPGKGLVWVSRISSDGSTTAYADSVRGRFTISRDNTKNTLYLQMNSLRAEDTAVYYCATHGGDRSYWGQGTLVTVSS | binds | 
VH domain clone G07. (SEQ ID NO: 69) (protein) VH: QVQLVQSGGGLVQPGGSLRLSCAASGFTFSSDWMHWVRQAPGEGLVWVSRISSDGSSTAYADSVKGRFTISRDNAKNTVSLQMNSLRAEDTAVYYCATHGGDRSYWGQGTLVTVSS | binds | 
